PubChem BioAssay AID1671195, Yale University – 2021
Test: 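Knockdowns that increase or decrease uptake of fluorescent LDL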 (primary screen). Cells: human Huh7 hepatoma cells. Knock-down reagent: siRNA pool against human genes, 18 nM. Time to read-out: about 2 to 2.5 days of knockdown, then 8 h LDL uptake. Challenge: DiI-labelled LDL at 30 µg/ml for 8 h, in lipoprotein-deficient serum medium. Detection: 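Per-cell DiI-LDL intensity by automated imaging; well means scaled to the plate median and given as a robust z-score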. Reading the numbers: robust z-score: higher = more LDL uptake after knockdown. Rule for the call: 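Active when two or more replicates show a robust z-score above 2 or below -2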.
This is an unselected part of about 22,000 reagents tested. About 1,510 of them (6.9%) were called active. 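Active includes knockdowns raising or lowering LDL uptake; positive z-scores mean more uptake, negative mean less.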

target | robust z-score, replicate 1 | robust z-score, replicate 2 | robust z-score, replicate 3 | activity call
PCBP1 (GeneID 5093) | -1.16 | -0.478 | -0.401 | inactive
UBQLN4 (GeneID 56893) | 0.813 | 0.852 | 0.972 | inactive
TBCC (GeneID 6903) | 1.38 | 1.27 | 2.43 | inactive
SFTA3 (GeneID 253970) | 1.06 | 1.02 | 1.44 | inactive
GNG11 (GeneID 2791) | 0.591 | 0.4 | 0.242 | inactive
DYSF (GeneID 8291) | 2.25 | 2.64 | 1.24 | active
LOC440981 (retired record) (GeneID 440981) | -0.522 | 0.0397 | -0.278 | inactive
ARMC5 (GeneID 79798) | 0.0914 | 0.771 | 0.184 | inactive
LOC401740 (retired record) (GeneID 401740) | -0.496 | -0.821 | -0.581 | inactive
LOC440510 (retired record) (GeneID 440510) | -0.499 | -0.938 | -0.451 | inactive
AGBL1 (GeneID 123624) | 1.1 | 0.523 | 1.46 | inactive
LOC402367 (retired record) (GeneID 402367) | -0.928 | 0.0744 | -0.526 | inactive
GRK6 (GeneID 2870) | -0.782 | -1.59 | -1.67 | inactive
TMEM44 (GeneID 93109) | 0.857 | 0.903 | 0.491 | inactive
TWF2 (GeneID 11344) | -0.572 | 0.0688 | -0.257 | inactive
PBXIP1 (GeneID 57326) | -0.983 | 0.427 | 0.303 | inactive
METTL3 (GeneID 56339) | 0.042 | -0.176 | -0.0504 | inactive
MAP3K7 (GeneID 6885) | -0.212 | -0.0852 | 0.196 | inactive
RBM8A (GeneID 9939) | -0.156 | 0.914 | -0.331 | inactive
RPSAP20 (GeneID 127406) | 0.761 | 0.656 | 0.138 | inactive
ZNF285CP (GeneID 646915) | -1.28 | -1.52 | -1.52 | inactive
LOC388604 (retired record) (GeneID 388604) | -0.812 | -0.373 | -0.544 | inactive
NAA20 (GeneID 51126) | -1.16 | -1.22 | -1.16 | inactive
LMX1A (GeneID 4009) | -0.335 | -0.318 | -0.357 | inactive
CFAP45 (GeneID 25790) | 2.8 | 1.12 | 2.3 | active
CITED2 (GeneID 10370) | 0.339 | 0.101 | -0.226 | inactive
SCHIP1 (GeneID 29970) | 0.567 | 0.14 | -2.48 | inactive
IL20RB (GeneID 53833) | -0.128 | 1.48 | -0.761 | inactive
LOC399867 (retired record) (GeneID 399867) | -0.47 | -1.22 | -1.23 | inactive
CD7 (GeneID 924) | -1.38 | 0.915 | -0.811 | inactive
ARVCF (GeneID 421) | -1.28 | -0.949 | -0.623 | inactive
INKA2 (GeneID 55924) | -0.89 | -1.53 | -1.92 | inactive
LOC392542 (retired record) (GeneID 392542) | -0.594 | -1.33 | -1.14 | inactive
LOC145780 (retired record) (GeneID 145780) | 3.55 | 2.54 | 3.4 | active
WDFY3 (GeneID 23001) | -1.2 | -1.01 | -0.936 | inactive
AGRP (GeneID 181) | 1.03 | -0.46 | 0.145 | inactive
DNAJA2 (GeneID 10294) | 0.371 | 0.725 | 0.241 | inactive
STK33 (GeneID 65975) | 1.63 | 3.18 | 1.77 | inactive
CCT4 (GeneID 10575) | -0.635 | -0.911 | -0.233 | inactive
PPM1K (GeneID 152926) | 0.611 | 0.837 | 0.697 | inactive
MRPL50 (GeneID 54534) | 0.699 | 0.254 | 0.475 | inactive
SYNE1 (GeneID 23345) | -1.25 | 0.715 | -1.24 | inactive
LOC442140 (retired record) (GeneID 442140) | -1.46 | -0.873 | -1 | inactive
BRD1 (GeneID 23774) | -1.02 | -0.812 | 0.261 | inactive
CHIC2 (GeneID 26511) | 1.44 | 2.37 | 1.4 | inactive
USP14 (GeneID 9097) | 0.296 | 0.765 | 0.43 | inactive
MEGF11 (GeneID 84465) | -1.68 | -1.99 | -1.43 | inactive
OR8G2P (GeneID 26492) | -1.29 | -1.06 | -1.03 | inactive
SPATA18 (GeneID 132671) | -0.205 | -0.568 | -1.23 | inactive
MST1R (GeneID 4486) | -0.699 | 0.0505 | 0.259 | inactive
BAG3 (GeneID 9531) | -1.11 | -1.07 | -1.14 | inactive
NXT1 (GeneID 29107) | 0.0554 | 2.12 | -0.374 | inactive
CDKN1A (GeneID 1026) | -0.262 | -0.336 | 2.16 | inactive
LINC00922 (GeneID 283867) | 0.864 | 0.659 | 0.257 | inactive
LOC441515 (retired record) (GeneID 441515) | -0.0689 | 0.153 | -0.0615 | inactive
ALKBH5 (GeneID 54890) | 0.112 | -0.882 | 0.977 | inactive
LOC389358 (retired record) (GeneID 389358) | 0.598 | 1.33 | 0.828 | inactive
TRMT1L (GeneID 81627) | -0.0938 | 0.119 | -0.424 | inactive
RPS2P11 (GeneID 343184) | 0.467 | 0.501 | -0.119 | inactive
RGPD4 (GeneID 285190) | 3.56 | 3.12 | 3.58 | active
PALB2 (GeneID 79728) | -0.179 | 0.177 | 0.524 | inactive
PRSS3 (GeneID 5646) | 0.436 | -0.609 | 0.902 | inactive
IL3 (GeneID 3562) | 2.46 | 3.17 | 2.45 | active
DEF8 (GeneID 54849) | 0.952 | 0.874 | 0.716 | inactive
POLR3C (GeneID 10623) | 0.675 | -0.689 | 1.9 | inactive
SERPINB9 (GeneID 5272) | 2.28 | 3.02 | 6.24 | active
VPS8 (GeneID 23355) | 2.04 | 0.283 | 0.376 | inactive
LOC339209 (retired record) (GeneID 339209) | 1.67 | 1.69 | 1.35 | inactive

Entries listed so far with an active call:
target | robust z-score, replicate 1 | robust z-score, replicate 2 | robust z-score, replicate 3 | activity call
DYSF (GeneID 8291) | 2.25 | 2.64 | 1.24 | active
CFAP45 (GeneID 25790) | 2.8 | 1.12 | 2.3 | active
LOC145780 (retired record) (GeneID 145780) | 3.55 | 2.54 | 3.4 | active
RGPD4 (GeneID 285190) | 3.56 | 3.12 | 3.58 | active
IL3 (GeneID 3562) | 2.46 | 3.17 | 2.45 | active
SERPINB9 (GeneID 5272) | 2.28 | 3.02 | 6.24 | active
